Results are given in words; binding and its absence hold for the method and conditions named. A result given as binding can be weak or reduced; the word gives no strength.
Assays:
[1] = target: human SIRPB-His fusion protein (human); test: ELISA on SIRPB-His fusion protein
[2] = target: human SIRPB-His fusion protein (human); test: ELISA, binding to human SIRPB-His fusion protein

B1: 1H9 (parental mouse anti-human SIRPa monoclonal antibody) (antibody, V domains shown)
VH: QVQLQQPGAERVKPGASVKMSCKASGYTFTSYWITWVKQRPGQGLEWIGDIYPGSGSTNHIEKFKSKATLTVDTSSNTAYMQLSRLTSEDSAVYYCATGYGSSYGYFDYWGQGTTLTVSS
VL: DIQMTQSPASLSASVGETVTITCRASENIYSYLAWYQQKQGKSPQLLVYTAKTLAEGVPSRFSGSGSGTQFSLKINSLQPEDFGNYYCQHQYGPPFTFGSGTRLVIK
- binding [1]: binds
- binding [2]: binds

B2: 3C2 (parental mouse anti-human SIRPa monoclonal antibody) (antibody, V domains shown)
VH: QVQLQQPGAELVRPGSSVKLSCKASGYTFTSYWMHWVKQRPIQGLEWIGNIDPSDSDTHYNQKFKDKATLTVDKSSSTAYMQLSSLTSEDSAVYYCARGYSKYYAMDYWGQGTSVTVSS
VL: DVLMTQTPLSLSVSLGDQASISCRSSQSIVHSYGNTYLEWYLQKPGQSPKLLIYKVSNRFSGVPDRFSGSGSGTDFTLKISRVEAEDLGVYYCFQGSHVPYTFGGGTKLEIK
- binding [1]: binds
- binding [2]: binds
